From patent publication US11993588B2, “Crystalline forms of a MAGL inhibitor” (H. Lundbeck A/S, priority 2016, dated 2024)
Structures can show the parent of a compound that is named as a salt. At least one compound was matched to its structure with a doubt left.

Key:
[1] = Gravimetric vapor sorption (GVS); assay type: physicochemical; details: for weight uptake / hygroscopic nature: GVS; for weight uptake: at 90% RH; for Post-GVS analysis by XRPD (form change): after GVS sorption/desorption cycle
Method: Approximately 10 mg of sample was placed into a mesh vapour sorption balance pan and loaded into an IGASorp Moisture Sorption Analyser balance by Hiden Analytical. The sample was subjected to a ramping profile from 40-90% relative humidity (RH) at 10% increments, maintaining the sample at each step until a stable weight had been achieved (98% step completion). After completion of the sorption cycle, the sample was dried using the same procedure to 0% RH, and finally taken back to the starting point of 40% RH. The weight change during the sorption/desorption cycles were plotted, allowing for the hygroscopic nature of the sample to be determined.

[2] = Stress at high humidity for 1 week; assay type: physicochemical
[3] = listed as Form 1 of Compound 6, fumarate salt
[4] = listed as Form 3 of Compound 6, fumarate salt
[5] = listed as Fumarate Salt (Compound 6), Form 1, fumarate salt

Structure (SMILES) | weight uptake ([1]; listed as Form 1 of Compound 1) | hygroscopic nature ([1]; listed as Form 1 of Compound 1) | Post-GVS analysis by XRPD (form change) ([1]; listed as Form 1 of Compound 1) | form after stress at high humidity [2] | weight uptake [1, 3] | weight uptake [1, 4] | weight uptake [1, 5] | hygroscopic nature [1, 3] | hygroscopic nature [1, 4] | hygroscopic nature [1, 5] | Post-GVS analysis by XRPD (form change) [1, 3] | Post-GVS analysis by XRPD (form change) [1, 4] | Post-GVS analysis by XRPD (form change) [1, 5]
O=C(OC(C(F)(F)F)C(F)(F)F)N1CCN(Cc2ccc(C(F)(F)F)cc2N2CCCC2)CC1 [Compound 1, 1,1,1,3,3,3-hexafluoropropan-2-yl 4-(2-(pyrrolidin-1-yl)-4-(trifluoromethyl)benzyl)piperazine-1-carboxylate] | < 0.07% | very non-hygroscopic | remain unchanged | – | – | – | – | – | – | – | – | – | –
O=C(OC(C(F)(F)F)C(F)(F)F)N1CCN(Cc2ccc(C(F)(F)F)cc2N2CCCC2)CC1 [Compound 6, 1,1,1,3,3,3-hexafluoropropan-2-yl 4-(2-(pyrrolidin-1-yl)-4-(trifluoromethyl)benzyl)piperazine-1-carboxylate fumarate salt] | – | – | – | converted to Form 1 of Compound 6 | 0.11% | 0.08% | 0.11% | non-hygroscopic | non-hygroscopic | non-hygroscopic | remain unchanged | minor changes | maintains its form and crystallinity
